Measured values taken from doi:10.1101/560391 (bioRxiv, 2019).
No constants are given. Whether binding was seen depends on the method and setting. Some results given as binding are weak or reduced against the parent protein; the word gives no strength. For some assays here: Sequences can lack the tags named with a protein. Values belong to the molecule of their own block, whether it stands above or below them.

Experiments:
Test in all cases: LacI/LacO tethering and co-recruitment in cells
[1] = molecular target: dCENP-A-GFP-LacIw (Drosophila) (UniProt Q9V6Q2)
[2] = molecular target: T1, GFP-LacI-dCENP-C (Drosophila) (UniProt Q9VHP9)
T1 sequence: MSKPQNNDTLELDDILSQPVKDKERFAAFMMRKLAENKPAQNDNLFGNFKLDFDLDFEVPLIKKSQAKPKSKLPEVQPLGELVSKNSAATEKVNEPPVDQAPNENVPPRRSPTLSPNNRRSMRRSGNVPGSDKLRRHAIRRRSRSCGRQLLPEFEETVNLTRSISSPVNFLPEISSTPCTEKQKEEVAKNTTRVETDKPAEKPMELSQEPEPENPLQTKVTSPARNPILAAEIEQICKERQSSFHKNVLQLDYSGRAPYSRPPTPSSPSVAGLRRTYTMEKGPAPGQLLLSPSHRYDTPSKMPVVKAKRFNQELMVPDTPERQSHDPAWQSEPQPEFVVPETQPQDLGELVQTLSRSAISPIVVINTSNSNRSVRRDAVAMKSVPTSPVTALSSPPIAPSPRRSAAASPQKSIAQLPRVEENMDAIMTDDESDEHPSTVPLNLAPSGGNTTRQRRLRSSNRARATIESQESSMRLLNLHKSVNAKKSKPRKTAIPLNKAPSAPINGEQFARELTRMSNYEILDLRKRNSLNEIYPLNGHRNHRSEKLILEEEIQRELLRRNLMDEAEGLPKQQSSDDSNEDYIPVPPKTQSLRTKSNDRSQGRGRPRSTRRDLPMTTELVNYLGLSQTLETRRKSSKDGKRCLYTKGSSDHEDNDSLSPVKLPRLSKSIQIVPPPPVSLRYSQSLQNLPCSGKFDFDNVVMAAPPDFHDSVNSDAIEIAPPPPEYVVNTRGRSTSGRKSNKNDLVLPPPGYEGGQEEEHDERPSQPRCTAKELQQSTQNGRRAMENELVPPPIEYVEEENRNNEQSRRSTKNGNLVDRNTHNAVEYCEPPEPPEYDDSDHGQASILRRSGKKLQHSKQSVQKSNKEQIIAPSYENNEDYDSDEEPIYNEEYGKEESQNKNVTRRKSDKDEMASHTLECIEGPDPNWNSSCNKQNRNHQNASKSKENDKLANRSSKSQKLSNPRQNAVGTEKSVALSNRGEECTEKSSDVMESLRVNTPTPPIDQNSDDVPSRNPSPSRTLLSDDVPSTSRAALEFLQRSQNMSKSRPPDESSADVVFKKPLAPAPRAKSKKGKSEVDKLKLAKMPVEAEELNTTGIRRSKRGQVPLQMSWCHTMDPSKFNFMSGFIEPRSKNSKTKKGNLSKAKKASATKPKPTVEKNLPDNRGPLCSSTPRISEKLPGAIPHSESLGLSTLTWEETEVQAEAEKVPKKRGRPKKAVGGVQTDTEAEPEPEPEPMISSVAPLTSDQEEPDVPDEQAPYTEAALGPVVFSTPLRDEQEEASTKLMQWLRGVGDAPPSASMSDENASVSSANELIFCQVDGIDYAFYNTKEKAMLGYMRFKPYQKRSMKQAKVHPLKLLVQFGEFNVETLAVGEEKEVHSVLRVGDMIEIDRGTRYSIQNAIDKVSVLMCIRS

[3] = molecular target: T2, GFP-LacI-dCENP-C(1009-1411) (Drosophila) (UniProt Q9VHP9)
T2 sequence: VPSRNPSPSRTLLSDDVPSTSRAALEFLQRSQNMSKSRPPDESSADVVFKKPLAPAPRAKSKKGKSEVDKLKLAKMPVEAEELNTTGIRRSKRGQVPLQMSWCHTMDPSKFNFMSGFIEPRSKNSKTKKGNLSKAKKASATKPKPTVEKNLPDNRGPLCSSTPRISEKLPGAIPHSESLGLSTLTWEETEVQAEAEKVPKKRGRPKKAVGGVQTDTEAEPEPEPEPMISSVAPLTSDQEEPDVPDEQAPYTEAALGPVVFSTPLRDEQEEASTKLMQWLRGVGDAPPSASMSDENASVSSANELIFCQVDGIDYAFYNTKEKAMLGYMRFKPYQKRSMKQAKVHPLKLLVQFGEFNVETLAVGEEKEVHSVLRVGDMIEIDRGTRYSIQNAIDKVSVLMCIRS

[4] = molecular target: T3, CAL1-GFP-LacI (Drosophila), Q9VEN2; details: remark: other sources report otherwise
T3 chain: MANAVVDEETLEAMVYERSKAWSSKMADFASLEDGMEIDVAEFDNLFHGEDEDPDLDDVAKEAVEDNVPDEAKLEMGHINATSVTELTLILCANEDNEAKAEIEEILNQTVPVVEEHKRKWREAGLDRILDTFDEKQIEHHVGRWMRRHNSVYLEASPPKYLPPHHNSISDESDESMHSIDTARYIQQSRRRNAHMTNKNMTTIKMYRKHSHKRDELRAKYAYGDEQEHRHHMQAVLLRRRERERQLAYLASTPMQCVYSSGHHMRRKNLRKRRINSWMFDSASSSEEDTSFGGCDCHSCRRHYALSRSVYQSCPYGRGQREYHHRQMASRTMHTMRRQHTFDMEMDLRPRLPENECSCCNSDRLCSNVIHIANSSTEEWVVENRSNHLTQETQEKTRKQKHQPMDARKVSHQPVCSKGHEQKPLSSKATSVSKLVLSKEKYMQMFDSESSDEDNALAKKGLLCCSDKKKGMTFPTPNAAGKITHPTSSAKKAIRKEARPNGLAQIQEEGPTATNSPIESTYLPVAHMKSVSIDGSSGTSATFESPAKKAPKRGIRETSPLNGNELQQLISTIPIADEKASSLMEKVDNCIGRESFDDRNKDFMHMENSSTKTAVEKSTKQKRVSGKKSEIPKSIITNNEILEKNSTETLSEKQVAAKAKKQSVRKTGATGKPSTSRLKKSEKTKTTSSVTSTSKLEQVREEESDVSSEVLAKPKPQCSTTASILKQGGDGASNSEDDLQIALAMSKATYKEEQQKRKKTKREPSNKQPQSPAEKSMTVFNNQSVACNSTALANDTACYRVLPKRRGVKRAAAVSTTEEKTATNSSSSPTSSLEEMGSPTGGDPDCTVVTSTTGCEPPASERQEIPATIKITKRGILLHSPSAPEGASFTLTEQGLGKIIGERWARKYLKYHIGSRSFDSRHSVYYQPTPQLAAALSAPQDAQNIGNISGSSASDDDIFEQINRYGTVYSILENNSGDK

[5] = molecular target: T4, dCENP-A (Drosophila), Q9V6Q2; details: remark: other sources report otherwise
T4 chain: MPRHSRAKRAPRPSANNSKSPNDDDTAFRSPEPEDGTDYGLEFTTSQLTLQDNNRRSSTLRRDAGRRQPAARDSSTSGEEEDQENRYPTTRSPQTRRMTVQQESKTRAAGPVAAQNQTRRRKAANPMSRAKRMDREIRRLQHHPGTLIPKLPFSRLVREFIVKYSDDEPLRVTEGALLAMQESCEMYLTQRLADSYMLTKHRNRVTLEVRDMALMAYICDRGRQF

binding [1]: binds | binding [2]: binds | binding [3]: binds
Molecule: CAL1-HA (from UniProt Q9VEN2 1-979)

binding [4]: binds
B1: CAL1-HA, Q9VEN2 1-979 (protein)
chain: T3 chain

binding [5]: binds
B2: GFP-LacIw-dCENP-C, Q9VHP9 1-1411 (protein)
chain: T1 sequence
